Measured values published in patent publication US20230256059A1, “COMPOSITIONS FOR TREATING RESPIRATORY TRACT INFECTION AND USES THEREOF” (Lateral IP Pty Ltd, priority 2020, published 2023).
Some of these results come from one statement about several compounds together. Bridge positions count the residues as written; N and C are the ends. Peptide text beside a SMILES is read from it.

Tested on: HKx31 (H3N2) IAV
Parameters: species or system C57BL/6 mice
Settings: mouse, in vivo, 20 mg/kg

Molecule	delay of IAV-associated lethality compared to controls
CC[C@H](C)[C@H](NC(=O)[C@H](CCCNC(=N)N)NC(=O)[C@H](CC(C)C)NC(=O)[C@@H](N)Cc1ccc(O)cc1)C(=O)N[C@H](C(=O)N[C@@H](CCC(N)=O)C(=O)N[C@H]1CSSC[C@@H](C(=O)NCC(=O)N[C@@H](Cc2ccccc2)C(=O)O)NC(=O)[C@H](CO)NC(=O)CNC(=O)[C@H](CCC(=O)O)NC(=O)[C@H](C(C)C)NC(=O)[C@H](CO)NC(=O)[C@H](CCCNC(=N)N)NC1=O)C(C)C [LAT8881, H-YLRIVQCRSVEGSCGF-OH] (H-YLRIVQCRSVEGSCGF-OH; disulfide 7-14)	48 to 72 h
H-CRSVEGSCGF-OH (listed as Homo sapiens) [LAT9991F]	48 to 72 h
